Test results: article PMC9076876
These are yes or no findings as the source states them, for the method shown. Binding seen in cells or lysates may run through a third protein. Some entries that bind do so weakly or less than the wild type. Tags and fused reporters may be left off the sequences shown.

What was measured:
[1] = target: T1, PEX12 (co-immunoprecipitation construct) (human) (UniProt O00623); experiment: co-IP; HEK293T cells co-transfected with V5-tagged PEX and FLAG-tagged candidate, collected 36 h after transfection; IP with anti-V5 antibody on protein G beads, 4 C for 3 h, washed with lysis buffer; blot with anti-FLAG
T1 sequence: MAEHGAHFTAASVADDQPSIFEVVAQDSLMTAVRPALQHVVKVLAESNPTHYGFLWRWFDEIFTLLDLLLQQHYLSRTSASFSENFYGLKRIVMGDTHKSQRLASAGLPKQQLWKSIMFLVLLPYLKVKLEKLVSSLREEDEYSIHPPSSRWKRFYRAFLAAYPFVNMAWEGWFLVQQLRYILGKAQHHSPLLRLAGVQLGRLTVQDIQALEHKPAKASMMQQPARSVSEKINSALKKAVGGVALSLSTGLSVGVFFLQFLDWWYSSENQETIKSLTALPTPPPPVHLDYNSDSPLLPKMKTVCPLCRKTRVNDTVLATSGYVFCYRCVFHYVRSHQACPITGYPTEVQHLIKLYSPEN

V5 tagged PEX10 (human) = target: T2, V5 tagged PEX10 (human) (UniProt O60683); experiment: as above
T2 sequence: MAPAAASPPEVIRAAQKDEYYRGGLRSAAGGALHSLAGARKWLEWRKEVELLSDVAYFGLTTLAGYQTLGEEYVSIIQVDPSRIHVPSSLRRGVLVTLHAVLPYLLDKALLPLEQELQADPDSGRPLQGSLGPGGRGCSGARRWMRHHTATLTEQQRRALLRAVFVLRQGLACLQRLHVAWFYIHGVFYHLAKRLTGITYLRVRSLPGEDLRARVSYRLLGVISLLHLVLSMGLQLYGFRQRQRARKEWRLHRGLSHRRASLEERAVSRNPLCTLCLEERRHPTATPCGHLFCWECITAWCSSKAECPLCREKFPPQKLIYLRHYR

B1: FLAG-tagged CYB5R1 (protein, UniProt Q9UHQ9 1-305)
chain: MGIQTSPVLLASLGVGLVTLLGLAVGSYLVRRSRRPQVTLLDPNEKYLLRLLDKTTVSHNTKRFRFALPTAHHTLGLPVGKHIYLSTRIDGSLVIRPYTPVTSDEDQGYVDLVIKVYLKGVHPKFPEGGKMSQYLDSLKVGDVVEFRGPSGLLTYTGKGHFNIQPNKKSPPEPRVAKKLGMIAGGTGITPMLQLIRAILKVPEDPTQCFLLFANQTEKDIILREDLEELQARYPNRFKLWFTLDHPPKDWAYSKGFVTADMIREHLPAPGDDVLVLLCGPPPMVQLACHPNLDKLGYSQKMRFTY
Question: Which results are given for B1?
Answer: binding [1]: binds; binding (V5 tagged PEX10 (human)): binds
